This is an account of results in PubChem BioAssay AID248 (DTP/NCI, 2004).

The assay concerns L1210 leukemia ip in BDF1 mice, survival T/C. As to the kind of experiment: NCI In Vivo Anticancer Drug Screen. Data for tumor model L1210 Leukemia (intraperitoneal) in B6D2F1 (BDF1) mice. The conditions noted are these: T/C endpoint: mean survival time, higher T/C = longer survival.
The mark [1] stands for this setting: dose: 200.0 mg/kg/injection, schedule: Q01DX009 (ip), vehicle: saline with Tween-80.
Setting [2] is: dose: 400.0 mg/kg/injection, schedule: Q01DX009 (ip), vehicle: saline with Tween-80.
Where [3] appears, read: dose: 400.0 mg/kg/injection, schedule: Q01DX009 (ip), vehicle: Klucel (hydroxypropylcellulose) (HPC).
[4] abbreviates: dose: 50.0 mg/kg/injection, schedule: Q01DX009 (ip), vehicle: saline with Tween-80.

The list shows only some results of the screen, not a fair sample: it gathers tests that were run many times, whatever their T/C, doses with no T/C, and many T/C values between a quarter and a half above the control. Other doses and runs of a compound stand elsewhere. T/C gives the treated animals as a percentage of the vehicle group. Some entries give survivors of the animals treated and no T/C: the source holds a T/C of zero for them, seemingly a mark for toxic or unscored doses. Some doses without a T/C left all or most animals alive at the check, yet need not have been tolerated: the source hardly ever lists a survival T/C far under the control, and the zero likely stands for such cases as well. Counts of survivors are from the toxicity check (mostly the fifth day) where no day follows; animals may have died later. Schedule codes are those of the source, taken here to give the interval after Q, in days (D) or hours (H), and the number of doses after X. Some schedules carry Z or #; the key to these is not given. For survival time, the PubChem record calls one and a half times the control and up active, and a quarter to a half above the control has no call in these data; cut-offs in other NCI protocols can differ.

Consider `CC1C=NNC1=O` (stereo not drawn), for which the T/C reads like this: (dose: 150.0 mg/kg/injection, schedule: Q#B X027 (ip), vehicle: saline) 135 % of control; under setting [1], 136 % of control; (dose: 200.0 mg/kg/injection, schedule: Q01DX009 (ip), vehicle: saline) 147 % of control; under setting [2], 131 % of control; (dose: 400.0 mg/kg/injection, schedule: Q01DX009 (ip), vehicle: saline) 140 % of control. The survivor count (dose: 600.0 mg/kg/injection, schedule: Q#B X027 (ip), vehicle: saline) was 1 of 6.
Turning to `CC(=O)Nc1ccc(CCCCc2c(C)nc(NC(C)=O)[nH]c2=O)cc1`, the survivor count (dose: 400.0 mg/kg/injection, schedule: Q01DX001 (ip), vehicle: Klucel (hydroxypropylcellulose) (HPC)) is recorded as 6 of 6.
As for `Cc1c(C(=O)O)nnn1-c1ccc(Cl)cc1Cl`, the survivor count (dose: 400.0 mg/kg/injection, schedule: Q04DX002 (ip), vehicle: Klucel (hydroxypropylcellulose) (HPC)) is recorded as 2 of 3.
Regarding `O=C(CCl)C1C(O)=[N+](c2ccccc2)C2C=CC=CN12` (stereo not drawn), the survivor count by setting is: (dose: 200.0 mg/kg/injection, schedule: Q01DX001 (ip), vehicle: saline) 2 of 6; (dose: 400.0 mg/kg/injection, schedule: Q01DX001 (ip), vehicle: saline) 3 of 6.
In the case of `O=C1NC(=O)C2C3C=CC(C12)C1C2C(=O)NC(=O)C2C31` (stereo not drawn), the T/C under setting [1] is 138 % of control.
For `ClC(c1ccccc1)C1(Br)C=c2ccccc2=C1` (stereo not drawn), under setting [3], the survivor count is listed as 5 of 6.
Regarding `ClC1=NC(Cl)C(Cl)=N/C1=N\c1ncn[nH]1` (stereo not drawn), the survivor count by setting is: (dose: 62.5 mg/kg/injection, schedule: Q01DX009 (ip), vehicle: saline with Tween-80) 2 of 6; (dose: 125.0 mg/kg/injection, schedule: Q01DX009 (ip), vehicle: saline with Tween-80) 0 of 6.
As for `Brc1cscc1-c1cccc2ccccc12`, the survivor count under setting [4] is 3 of 3.
With `C/C(Cc1ccccc1)=N\O`, under setting [1], the survivor count is listed as 6 of 6.
As to `O=C1OC2CCCCC2/C1=C/N1CCCCC1` (stereo not drawn), where the note is “dose: 25.0 mg/kg/injection, schedule: Q04DX002 (ip), vehicle: Klucel (hydroxypropylcellulose) (HPC)”, the survivor count was 3 of 3.
As to `CC(=O)NCCCCC(=O)c1ccccc1`, the survivor count under setting [2] is given as 3 of 6.
`N#CC1(C#N)C(c2ccccc2)C1(C#N)C#N`: the survivor count is on record as 1 of 6 (dose: 100.0 mg/kg/injection, schedule: Q04DX003 (ip), vehicle: saline with Tween-80); 0 of 6 (dose: 200.0 mg/kg/injection, schedule: Q04DX003 (ip), vehicle: saline with Tween-80); 0 of 6 (dose: 400.0 mg/kg/injection, schedule: Q04DX003 (ip), vehicle: saline with Tween-80).
Regarding `O=C(O)c1ccc(CCl)cc1`, where the note is “dose: 400.0 mg/kg/injection, schedule: Q04DX002 (ip), vehicle: saline with Tween-80”, the survivor count is reported as 2 of 6.
For the compound `CCCCCCCCCCCCN` (tested in a mixture with another compound), the survivor count is, setting by setting: (dose: 175.0 mg/kg/injection, schedule: Q01DX001 (ip), vehicle: Klucel (hydroxypropylcellulose) (HPC)) 2 of 6; (dose: 350.0 mg/kg/injection, schedule: Q01DX001 (ip), vehicle: Klucel (hydroxypropylcellulose) (HPC)) 0 of 6.
For the compound `Cc1c2oc3c(C)ccc(C(=O)NC4C(=O)NC(C(C)C)C(=O)N(C)CC(=O)N(C)CC(=O)N(C)C(C(C)C)C(=O)OC4C)c3nc-2c(C(=O)NC2C(=O)NC(C(C)C)C(=O)N(C)CC(=O)N(C)CC(=O)N(C)C(C(C)C)C(=O)OC2C)c(N)c1=O` (stereo not drawn), under “dose: 8.0 mg/kg/injection, schedule: Q01DX001 (ip), vehicle: saline + alcohol”, the survivor count was 1 of 8. In addition, the T/C was 145 % of control (dose: 500.0 micrograms/kg/injection, schedule: Q01DX009 (ip), vehicle: saline + alcohol); 138 % of control (dose: 1000.0 micrograms/kg/injection, schedule: Q01DX009 (ip), vehicle: saline + alcohol); 135 % of control (dose: 3000.0 micrograms/kg/injection, schedule: Q04DX003 (ip), vehicle: saline + alcohol).
For `CCOP(=O)(NC12CC3CC(CC(C3)C1)C2)OCC`, under setting [3], the survivor count is given as 1 of 6.
Consider `CC(C)(C)C1CCC(N)CC1` (stereo not drawn), for which the survivor count is reported as 0 of 4 (dose: 100.0 mg/kg/injection, schedule: Q01DX001 (ip), vehicle: carboxymethylcellulose (CMC)); 0 of 4 (dose: 200.0 mg/kg/injection, schedule: Q01DX001 (ip), vehicle: carboxymethylcellulose (CMC)); 0 of 4 (dose: 400.0 mg/kg/injection, schedule: Q01DX001 (ip), vehicle: carboxymethylcellulose (CMC)).
Consider `CCOC(CNC(=O)c1cccc(S(=O)(=O)F)c1)OCC`, for which, where the note is “dose: 400.0 mg/kg/injection, schedule: Q04DX003 (ip), vehicle: saline + alcohol”, the survivor count is on record as 0 of 6.
With `CC(=O)Oc1ccc(N(CCCl)CCCl)cc1OC(C)=O`, the T/C (dose: 75.0 mg/kg/injection, schedule: Q01DX001 (ip), vehicle: other) is 136 % of control. The survivor count (dose: 300.0 mg/kg/injection, schedule: Q01DX001 (ip), vehicle: other) is 3 of 6.
Regarding `COc1ccc(C)cc1NC(=O)c1c(Br)c(Br)c(Br)c(Br)c1C(=O)O`, the survivor count under setting [3] is 1 of 6.
With `c1ccc2c(c1)[nH]c1c2cc[n+]2cc3c(cc12)CCCC3`, the survivor count is, setting by setting: (dose: 75.0 mg/kg/injection, schedule: Q01DX001 (ip), vehicle: saline) 0 of 6; (dose: 150.0 mg/kg/injection, schedule: Q01DX001 (ip), vehicle: saline) 0 of 6; (dose: 300.0 mg/kg/injection, schedule: Q01DX001 (ip), vehicle: saline) 0 of 6.
As for `CC(C)C(=O)c1ccc([N+](=O)[O-])o1`, the survivor count under setting [2] was 6 of 6.
As for `COC1CCC2CC3C4Cc5cn[nH]c5C5OC1C2C54CCN3C` (stereo not drawn), the survivor count (dose: 400.0 mg/kg/injection, schedule: Q04DX003 (ip), vehicle: saline) is given as 6 of 6.
For `CCCCOP(=O)(O)OCCCC.[Cd]`, the survivor count runs as follows: (dose: 50.0 mg/kg/injection, schedule: Q01DX009 (ip), vehicle: Klucel (hydroxypropylcellulose) (HPC)) 0 of 6; (dose: 100.0 mg/kg/injection, schedule: Q01DX009 (ip), vehicle: Klucel (hydroxypropylcellulose) (HPC)) 0 of 6; (dose: 200.0 mg/kg/injection, schedule: Q01DX009 (ip), vehicle: Klucel (hydroxypropylcellulose) (HPC)) 0 of 6; under setting [3], 0 of 6.
In the case of `CC(=O)c1cccc(NC(=O)N2CCN(c3ccccc3)CC2)c1`, under setting [2], the survivor count was 3 of 6.
For the compound `COc1ccc(/C=C(\C(=O)O)c2cccc3ccccc23)cc1`, the survivor count under setting [3] is 2 of 6.
On to `CCN1CC2c3cc(OC)c(OC)cc3CC(c3ccccc3)C2C1` (stereo not drawn), for which the survivor count under setting [4] is 3 of 6.
